This test deals with MPP-processed product of the MTP-CoxIV::Twin Strep::AnfK fusion polypeptide (SN195; encoded by SL34, SL37 and SL43) (Azotobacter vinelandii) (UniProt P16267). Description: Strep-tactin XT pull-down of TwinStrep::AnfK from SL37-infiltrated leaves, anaerobic; anti-HA Western blot of the eluate. On the technique in general: Immunoblotting shows a protein as a band on a membrane.

Sequences of proteins named here, by UniProt entry; tags and fusion partners are left off. A change or cut given only in a name is not applied to a line headed by its entry.
UniProt P16267: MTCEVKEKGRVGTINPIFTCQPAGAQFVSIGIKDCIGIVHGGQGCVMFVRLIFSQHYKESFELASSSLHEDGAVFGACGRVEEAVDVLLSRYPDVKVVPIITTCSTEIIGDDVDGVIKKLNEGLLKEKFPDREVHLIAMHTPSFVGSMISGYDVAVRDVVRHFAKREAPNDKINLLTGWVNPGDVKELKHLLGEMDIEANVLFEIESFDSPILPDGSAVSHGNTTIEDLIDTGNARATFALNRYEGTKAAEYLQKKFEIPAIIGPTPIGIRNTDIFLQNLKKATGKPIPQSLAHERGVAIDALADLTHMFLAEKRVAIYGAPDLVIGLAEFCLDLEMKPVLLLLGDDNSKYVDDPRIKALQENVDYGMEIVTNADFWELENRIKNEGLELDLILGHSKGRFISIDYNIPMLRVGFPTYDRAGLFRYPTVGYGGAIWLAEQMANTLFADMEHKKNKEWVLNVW

These are yes or no findings as the source states them, for the method shown. Binding seen in cells or lysates may run through a third protein. Some binding calls cover weakened binding; strength is not graded here. Where a sequence is shown, tags or fusion partners need not be part of it.

B1: MTP-FAγ51::AnfD::HA fusion polypeptide (SN81; encoded by SL37), unprocessed form (enzyme)
chain: MMAMAVFRREGRRLLPSIAARPIAAIRSPLSSDQEEGLLGVRSISTQVVRNRGGMPHHEFECSKVIPERKKHAVIKGKGETLADALPQGYLNTIPGSISERGCAYCGAKHVIGTPMKDVIHISHGPVGCTYDTWQTKRYISDNDNFQLKYTYATDVKEKHIVFGAEKLLKQNIIEAFKAFPQIKRMTIYQTCATALIGDDINAIAEEVMEEMPEVDIFVCNSPGFAGPSQSGGHHKINIAWINQKVGTVEPEITGDHVINYVGEYNIQGDQEVMVDYFKRMGIQVLSTFTGNGSYDGLRAMHRAHLNVLECARSAEYICNELRVRYGIPRLDIDGFGFKPLADSLRKIGMFFGIEDRAKAIIDEEVARWKPELDWYKERLMGKKVCLWPGGSKLWHWAHVIEEEMGLKVVSVYTKFGHQGDMEKGIARCGEGTLAIDDPNELEGLEALEMLKPDIILTGKRPGEVAKKVRVPYLNAHAYHNGPYKGFEGWVRFARDIYNAIYSPIHQLSGIDITKDNAPEWGNGFRTRQMLSDGNLSDAVRNSETLRQYTGGYDSVSKLREREYPAFERKVGGGYPYDVPDYA
For B1, the binding entry was “binds”.

(Values after US20220170038A1.)
